One experiment has as its target Flag-Smad7. Briefly: co-immunoprecipitation and immunoblot, transfected COS-1 cells. A general note: In western blotting, separated proteins are transferred to a membrane and probed.
For a further experiment, the target named is Flag-tagged Smad1(AAVA). The experiment is described as above.
The next experiment deals with Smad2. Described as above.
In a further experiment the target is Smad4. Described as above.
In experiment [1] the target is Myc-Smad7. Briefly: sequential immunoprecipitation (restated in the discussion).
In experiment [2] the target is Myc-Smad7. Briefly: sequential immunoprecipitation (anti-Flag, Flag peptide elution, anti-Myc), anti-HA blot.
In experiment [3] the target is Myc-Smad7. The experiment is described as follows: sequential immunoprecipitation (anti-Flag, Flag peptide elution, anti-Myc), anti-HA blot, COS-1 cells.

From patent publication US6770458 come the findings set out here.

Results are given in words; binding and its absence hold for the method and conditions named. For some of these results: Binding calls can cover weak binding; strength is not graded here. Where a sequence is shown, tags or fusion partners need not be part of it. For some of these results: In cells and extracts the contact can be indirect.

B1: STRAP-HA (protein, not shown: small tags and cut ends)
chain: MAMRQTPLTCSGHTRPVVDLAFSGITPYGYFLISACKDGKPMLRQGDTGDWIGTFLGHKGAVWGATLNKDATKAATAAADFTAKVWDAVSGDELMTLAHKHIVKTVDFTQDSNYLLTGGQDKLLRIYDLNKPEAEPKEISGHTSGIKKALWCSDDKQILSADDKTVRLWDHATMTEVKSLNFNMSVSSMEYIPEGEILVITYGRSIAFHSAVSLEPIKSFEAPATINSASLHPEKEFLVAGGEDFKLYKYDYNSGEELESYKGHFGPIHCVRFSPDGELYASGSEDGTLRLWQTVVGKTYGLWKCVLPEEDSGELAKPKIGFPETAEEELAEEIASENSDSIYSSTPEVKA
Take B1: the binding result was “binds” with Flag-Smad7, “no binding” with Flag-tagged Smad1(AAVA), “binds” with Smad2 and “no binding” with Smad4.

B2: STRAP-Flag (protein, not shown: small tags and cut ends)
chain: MAMRQTPLTCSGHTRPVVDLAFSGITPYGYFLISACKDGKPMLRQGDTGDWIGTFLGHKGAVWGATLNKDATKAATAAADFTAKVWDAVSGDELMTLAHKHIVKTVDFTQDSNYLLTGGQDKLLRIYDLNKPEAEPKEISGHTSGIKKALWCSDDKQILSADDKTVRLWDHATMTEVKSLNFNMSVSSMEYIPEGEILVITYGRSIAFHSAVSLEPIKSFEAPATINSASLHPEKEFLVAGGEDFKLYKYDYNSGEELESYKGHFGPIHCVRFSPDGELYASGSEDGTLRLWQTVVGKTYGLWKCVLPEEDSGELAKPKIGFPETAEEELAEEIASENSDSIYSSTPEVKA
Regarding B2, the binding result with Myc-Smad7 [1], in the experiment with Myc-Smad7 [2] and with Myc-Smad7 [3] was “binds” in each case.
